One molecule from paper PMC10203710 can be followed below.

This assay has as its target IFT140 (human (endogenous in HEK-293T)), Q96RY7. In words: co-IP; HEK-293T cells transfected with Flag-human WDR60 or Flag-human WDR34; lysate in 1% Triton X-100 buffer (20 mM Tris pH 7.5, 150 mM NaCl); IP with anti-IFT88 or anti-IFT140 antibody at 4°C overnight, Protein A + G agarose beads, washed in cold PBS; WDR60 or WDR34 detected by western blot. The note with it: remark: other sources report otherwise. A general note: Immunoblotting shows a protein as a band on a membrane.

These are yes or no findings as the source states them, for the method shown. In cells and extracts the contact can be indirect. Sequences can lack the tags named with a protein.

B1: Flag-human WDR60 (WD repeat domain 60), Q8WVS4 1-1066 (protein)
chain: MEPGKRRTKDDTWKADDLRKHLWAIQSGGSKEERKHREKKLRKESEMDLPEHKEPRCRDPDQDARSRDRVAEVHTAKESPRGERDRDRQRERRRDAKDREKEKLKEKHREAEKSHSRGKDREKEKDRRARKEELRQTVAHHNLLGQETRDRQLLERAERKGRSVSKVRSEEKDEDSERGDEDRERRYRERKLQYGDSKDNPLKYWLYKEEGERRHRKPREPDRDNKHREKSSTREKREKYSKEKSNSFSDKGEERHKEKRHKEGFHFDDERHQSNVDRKEKSAKDEPRKRESQNGEHRNRGASSKRDGTSSQHAENLVRNHGKDKDSRRKHGHEEGSSVWWKLDQRPGGEETVEIEKEETDLENARADAYTASCEDDFEDYEDDFEVCDGDDDESSNEPESREKLEELPLAQKKEIQEIQRAINAENERIGELSLKLFQKRGRTEFEKEPRTDTNSSPSRASVCGIFVDFASASHRQKSRTQALKQKMRSTKLLRLIDLDFSFTFSLLDLPPVNEYDMYIRNFGKKNTKQAYVQCNEDNVERDIQTEEIETREVWTQHPGESTVVSGGSEQRDTSDAVVMPKIDTPRLCSFLRAACQVMAVLLEEDRLAAEPSWNLRAQDRALYFSDSSSQLNTSLPFLQNRKVSSLHTSRVQRQMVVSVHDLPEKSFVPLLDSKYVLCVWDIWQPSGPQKVLICESQVTCCCLSPLKAFLLFAGTAHGSVVVWDLREDSRLHYSVTLSDGFWTFRTATFSTDGILTSVNHRSPLQAVEPISTSVHKKQSFVLSPFSTQEEMSGLSFHIASLDESGVLNVWVVVELPKADIAGSISDLGLMPGGRVKLVHSALIQLGDSLSHKGNEFWGTTQTLNVKFLPSDPNHFIIGTDMGLISHGTRQDLRVAPKLFKPQQHGIRPVKVNVIDFSPFGEPIFLAGCSDGSIRLHQLSSAFPLLQWDSSTDSHAVTGLQWSPTRPAVFLVQDDTSNIYIWDLLQSDLGPVAKQQVSPNRLVAMAAVGEPEKAGGSFLALVLARASGSIDIQHLKRRWAAPEVDECNRLRLLLQEALWPEGKLHK
Turning to B1, the binding entry is recorded as “no binding”.
